This test is described as follows: qHTS Assay for Lipid Storage Modulators in Drosophila S3 Cells.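 As to cell number change: cells counted by Cell Tracker Red CMTPX staining in the red channel.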 The settings on record: BODIPY lipid droplet fluorescence, 18-24 h; for cell number change: measured here: cell count max response, cells fed with added oleic acid. The method, boiled down:
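Laser-scanning cytometry quantifies lipid droplet accumulation (500–530 nm total intensity; droplet/cell object ratio) in oleic acid-fed (400 uM added) Drosophila S3 cells treated with a concentration series. 20 uM Triacsin C defined 100% inhibition.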
Background: qHTS replaces the single test concentration by a dilution series.

Where [1] appears, read: measured here: cell number channel AC50, cells fed with added oleic acid.
[2] abbreviates: measured here: lipid fluorescence (Fed channel) AC50, cells fed with added oleic acid.

The list shows a part of the results. Shown are side measurements of this screen, not its main read-out; they come without a call. Most of these compounds were active or inconclusive in the main read-out, so they are no random draw. Potencies come from curve fits of mixed quality, noted in brackets.

As for `CCOC(=O)c1ccc(Cn2cnc3ccccc3c2=O)cc1`, the AC50 (in general, the concentration giving half of the maximal activity seen) under setting [1] is 326 nM [rising, full curve] and the AC50 under setting [2] is 6510 nM [rising, partial curve].

For the molecule `CCc1nc(C(N)=O)c2[nH]c(=O)n(-c3ccccc3F)c2n1`, the cell number change came to 6.42%.

In the case of `CCO[C@H]1c2c(ccc3ccc(=O)oc23)OC(C)(C)[C@@H]1O`, the cell number change was 2.89%.

On to `O=C(COC(=O)c1ccccc1)Nc1cccc(S(=O)(=O)N2CCCCC2)c1`, for which the cell number change was -23.1%. The AC50 under setting [2] was 130 nM [rising, full curve, poor fit].

Take `Cc1cc(C)nc(N/N=C/c2ccccc2)n1`: the cell number change was 3.27%. The AC50 under setting [2] is 29100 nM [falling, single point].

For `O=C(Nc1cccc(-c2cn3ccsc3n2)c1)c1ccccc1`, the cell number change stood at 2.65%. Further, under setting [2], the AC50 is 4.61 nM [falling, full curve, poor fit].

As for `Cc1c(Cl)cccc1NC(=O)CN1CCC(C(O)(c2ccccc2)c2ccccc2)CC1`, the cell number change was -16.7%.

`Cc1cc(=O)[nH]c(SCc2cccc(Br)c2)n1`: the cell number change was -32.6%. Under setting [1], the AC50 was 20600 nM [falling, single point].

For the molecule `COC(=O)c1ccccc1N(C)S(C)(=O)=O`, the cell number change was -38.5%. Also, the AC50 under setting [2] is 29100 nM [falling, single point].

For the molecule `CCOC(=O)c1c(C)[nH]c(C(=O)COC(=O)CN2C(=O)C3CCCCC3C2=O)c1C` (stereo unspecified), the cell number change is -16.4%. Further, the AC50 under setting [2] is 1160 nM [falling, partial curve].

As to `O=C(CN1CCCN(Cc2ccc(F)cc2Cl)C1=O)NC1CCCC1`, the cell number change came out at 15.3%. For the same molecule, the AC50 under setting [2] was 291 nM [rising, full curve, poor fit].

On to `COC(=O)/C=C(\C)NC(=O)c1ccc(F)cc1`, for which the cell number change is 191%. Also, under setting [1], the AC50 was 29100 nM [rising, single point].

As for `CCN(CC)S(=O)(=O)c1ccc(Cl)c(C(=O)NC(C)C(c2cccs2)N2CCCC2)c1` (stereo unspecified), the AC50 under setting [1] is 5800 nM [rising, partial curve, poor fit].

In the case of `COc1ccc(CCNC(=O)COC(=O)C2CC2C)cc1` (stereo unspecified), the cell number change is 4.76%. In addition, under setting [2], the AC50 is 18400 nM [rising, partial curve].

For `O=C(CSc1nnc2ccc(-c3ccccn3)nn12)Nc1ccccc1`, the cell number change turned out to be 23%. In addition, under setting [2], the AC50 was 116 nM [rising, full curve].

For `CC1CC(C)CN(C(=O)Cn2c(=O)oc3cc(S(=O)(=O)N4CCCC4)ccc32)C1` (stereo unspecified), the cell number change was -14.3%.

As to `COc1cc(NC(=O)CN2CCCCCC2)cc(OC)c1`, the cell number change was -5.56%. The AC50 under setting [2] was 6510 nM [rising, partial curve, poor fit].

Consider `CC(c1ccco1)N(C(=O)C12CC3CC(CC(C)(C3)C1)C2)c1ccccn1` (stereo unspecified), for which the cell number change is -18.3%. In addition, the AC50 under setting [2] was 580 nM [rising, single point].

As for `CCCC(=O)Nc1nc2nc(-c3ccccc3)cc(-c3ccccc3)n2n1`, the AC50 under setting [2] was 32600 nM [falling, single point].

For `Cc1onc(-c2ccccc2)c1C(=O)N1CCCCCC1`, the cell number change was -1.47%.

As for `C/C(=N\NC(=O)c1cccc(S(=O)(=O)Nc2ccc(C)cc2C)c1)c1ccncc1`, the AC50 under setting [1] is 130 nM [rising, full curve].

Take `COCCOC(=O)c1nccnc1C(=O)Nc1ccc(S(=O)(=O)N2CCOCC2)cc1`: the cell number change was -40.5%. Also, under setting [1], the AC50 was 29100 nM [falling, single point]. Also, the AC50 under setting [2] was 1840 nM [rising, partial curve].

Consider `O=C(CCc1nnc2ccc(NCc3ccco3)nn12)Nc1ccccc1F`, for which the cell number change is -40.2%. In addition, under setting [1], the half-maximal activity concentration (AC50) is 25.9 nM [falling, full curve, poor fit].

For the molecule `O=C1c2ccccc2C(=O)N1CCC1=CCCCC1`, the cell number change is -12.7%.

Regarding `Cc1cc(=O)oc2cc(NC(=O)c3cc([N+](=O)[O-])ccc3N3CCOCC3)ccc12`, the cell number change stood at 37.3%. For the same molecule, the AC50 under setting [1] is 25.9 nM [rising, full curve, poor fit]. In addition, under setting [2], the AC50 was 651 nM [rising, full curve].

As to `CC(C(=O)Nc1ccc(C#N)cc1)N(C)CC(=O)Nc1ccccc1Br` (stereo unspecified), the cell number change amounted to 81.1%. For the same molecule, the AC50 under setting [1] was 16400 nM [rising, single point]. In addition, the AC50 under setting [2] is 16400 nM [rising, single point].

As to `Cc1ccc2cc(C#N)c(N3CCCC3)nc2c1C`, the AC50 under setting [1] is 731 nM [falling, single point].

Turning to `COc1cccc(CC(=O)Nc2ccc3c(c2)CCC3)c1`, the cell number change is -3.95%. Besides, the AC50 under setting [2] was 3550 nM [falling, full curve, poor fit].

`O=C(O)c1ccc(/C=C2\SC(=S)N(NC(=O)c3ccccc3[N+](=O)[O-])C2=O)cc1`: the cell number change was 12.6%. Moreover, the AC50 under setting [2] is 2910 nM [rising, partial curve].

With `CCOC(=O)c1c(NC(=O)CSc2nnc(-c3ccncc3)n2Cc2ccco2)sc(C)c1C`, the cell number change stood at 0.482%. In addition, under setting [1], the AC50 is 291 nM [rising, partial curve]. Under setting [2], the AC50 was 580 nM [rising, partial curve].

For the molecule `O=C(Nc1ccc(N2CCCCC2)cc1)c1cccnc1Cl`, the cell number change was -5.26%. The AC50 under setting [2] was 29100 nM [falling, single point].

Take `CCOc1ccc(CCNC(=O)c2cccc(-n3cnnn3)c2)cc1OCC`: under setting [2], the AC50 was 65.1 nM [falling, full curve].

In the case of `O=C(CNC(=O)c1ccc(Cl)cc1)OCn1nnc2ccccc2c1=O`, the cell number change is -6.73%. Further, under setting [2], the AC50 is 2910 nM [rising, partial curve, poor fit].

Take `CC(=O)N1CCc2cc(Br)cc(S(=O)(=O)N3CCN(C(=O)c4ccco4)CC3)c21`: the cell number change is -1.84%. Further, the AC50 under setting [2] is 5.17 nM [falling, full curve, poor fit].

In the case of `CCC(=O)Nc1c(-c2ccc(Cl)cc2)c(=O)c2ccccc2n1C`, under setting [1], the AC50 is 2060 nM [falling, partial curve, poor fit].

For `NS(=O)(=O)c1cccc(NC(=O)CSc2nc3ccccc3n2-c2ccccc2)c1`, the cell number change was -17.8%. Moreover, the AC50 under setting [2] is 29100 nM [falling, single point].

As to `CCn1c(=O)c2c(nc3n2CCCN3Cc2ccccc2)n(C)c1=O`, the cell number change was 13.8%. Under setting [2], the AC50 is 5170 nM [rising, single point].

As for `COc1ccc(C(c2c(O)cc(C)oc2=O)c2c(O)cc(C)oc2=O)cc1`, the cell number change was -43.9%. Also, under setting [1], the AC50 is 1160 nM [falling, partial curve, poor fit].

Take `COCCN(C(=O)COC(=O)CCc1ccc(OC)cc1)c1c(N)n(Cc2ccccc2)c(=O)[nH]c1=O`: the cell number change is -6.74%. The AC50 under setting [1] is 731 nM [falling, full curve, poor fit]. Besides, under setting [2], the concentration at half-maximal activity (AC50) was 5800 nM [falling, partial curve, poor fit].

In the case of `COC(=O)c1c(NC(C)=O)sc(Cc2ccccc2)c1C`, the cell number change was -7.47%.

In the case of `COc1ccc(S(=O)(=O)N2CCCC(C(=O)NCC3CCCO3)C2)cc1OC` (stereo unspecified), the AC50 under setting [2] was 291 nM [rising, single point].

In the case of `O=C(CN1CCN(Cc2ccccc2Cl)C1=O)NCCCN1CCOCC1`, the cell number change amounted to 7.1%.

Turning to `C=CCN(CC=C)S(=O)(=O)c1ccc2nc(NC(=O)C(C)C)sc2c1`, the cell number change stood at 16.4%. The AC50 under setting [1] is 2910 nM [rising, single point]. Further, under setting [2], the AC50 was 4110 nM [rising, partial curve].

With `Cc1noc(C)c1C(=O)N1CCN(C(=O)c2sc3cc(Cl)ccc3c2Cl)CC1`, the AC50 by setting is: under setting [1], 580 nM [rising, full curve]; under setting [2], 820 nM [rising, full curve].

Take `CCc1ccc(-c2cc(C(=O)NCc3ccco3)c3ccccc3n2)s1`: the cell number change is 1.35%. The AC50 under setting [2] is 29100 nM [falling, single point].

Take `COC(=O)C1=C(C)NC(C)=C(C(=O)OC)C1C(=O)OCc1nnc(-c2ccccc2Cl)o1`: the cell number change is -95.9%. Besides, the AC50 under setting [1] is 32600 nM [falling, partial curve]. For the same molecule, the AC50 under setting [2] was 5170 nM [falling, partial curve].

On to `C/C(=N\NC(=O)c1ccccc1NC(=O)c1ccc(Cl)cc1)c1ccncc1`, for which the cell number change stood at 11.6%. For the same molecule, the AC50 under setting [2] is 4.61 nM [rising, full curve, poor fit].

Turning to `CC(C)N=C(NS(=O)(=O)NC(=O)c1ccccc1)c1ccccc1`, the cell number change is 14.5%. The AC50 under setting [1] was 6510 nM [falling, single point]. In addition, the AC50 under setting [2] is 6510 nM [falling, single point].

`COC(=O)C1=CN(c2ccc(Cl)cc2)C=C(C(=O)OC)C1c1ccc([N+](=O)[O-])cc1`: the cell number change was 21.1%. Also, under setting [2], the AC50 was 6510 nM [rising, single point].

Take `C=CCNC(=S)NNC(=O)c1ccc(OC(C)C)cc1`: the AC50 under setting [1] is 1160 nM [rising, full curve] and the AC50 under setting [2] is 1030 nM [rising, full curve].

With `N#CC1=C(N)Oc2n[nH]c(-c3ccccc3)c2C1c1ccncc1` (stereo unspecified), the cell number change is -4.43%. Further, the AC50 under setting [2] was 130 nM [rising, full curve, poor fit].

For `CCC(=O)N1CCC2(CC1)Oc1ccc(Cl)cc1C(=O)C21CC(c2cccnc2)=NO1` (stereo unspecified), the cell number change is -38.9%. The AC50 under setting [1] is 29100 nM [falling, single point]. Moreover, the AC50 under setting [2] is 29100 nM [falling, single point].

Turning to `COc1ccc(CC(=O)OCC(=O)NC2CCCCCC2)cc1OC`, the cell number change was determined as 1.5%.

For the molecule `O=C(Nc1cccc(Oc2ccc(C(=O)O)c(C(=O)O)c2)c1)c1ccc(-c2ccccc2)cc1`, the cell number change is -10.8%. Further, the AC50 under setting [2] is 1160 nM [falling, full curve, poor fit].

As for `C/C(=N\N(c1ccccc1)c1ccccc1)c1ccc(O)cc1`, the cell number change was -13%.

`CC(C)c1ccc(NC(=O)c2ccc(NC3=NC4CS(=O)(=O)CC4S3)cc2)cc1` (stereo unspecified): the cell number change is 47%. Also, the AC50 under setting [1] is 29100 nM [rising, single point]. Besides, the AC50 under setting [2] was 2910 nM [falling, partial curve, poor fit].

With `CCCNC(=O)Cn1sc2nc(C)cc(C)c2c1=O`, the cell number change was -56.5%. In addition, under setting [1], the AC50 is 23100 nM [falling, single point]. Further, under setting [2], the AC50 is 16400 nM [falling, partial curve].

With `O=C(CSc1ncn[nH]1)Nc1nc(-c2ccccc2)ns1`, the cell number change was -16%.

In the case of `CC1CCCCN1S(=O)(=O)c1ccc(S(=O)(=O)N2CCCC2)cc1` (stereo unspecified), the cell number change turned out to be 17.9%. For the same molecule, the AC50 under setting [2] is 29100 nM [falling, partial curve].
